In the RNAGym collection of RNA variant scans (doi:10.1126/science.aae0568):
Variants at the floor of the assay are shown more often than the library holds them.

B1: tRNA (parent)
chain: GUUCCGUUGGCGUAAUGGUAACGCGUCUCCCUCCUAAGGAGAAGACUGCGGGUUCGAGUCCCGUACGGAACG

Variants of: B1
Experiment: yeast fitness relative to wild type (ratio to wild type); higher = fitter; tRNA-Arg(CCU), competitive growth, 37 C, YPD
In short: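 Start and end populations of a pooled competition were compared by 100-nucleotide paired-end sequencing of gene amplicons. The Saccharomyces cerevisiae strains carried tRNA-Arg(CCU) gene variants at the native genomic locus, synthesised with a 3% per-site mutation rate at 69 sites, and competed in YPD at 37°C for 24 hours in six parallel replicates. Darwinian fitness relative to wild type was based on the change in genotype frequencies. Genotypes required ≥ 100 starting reads, and estimates < 0.5 were set to 0.5.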

Variant	yeast fitness
C34A A42U G58C C60A C62U	0.571
C4G A14G C31A C66U	≤ 0.5
C4G C11U A14G C31A C33A	≤ 0.5
U26C C27A C55U	≤ 0.5
U32C G44A A57G	≤ 0.5
A14G U28G G41C U64C	≤ 0.5
C4A C11A A40G U54A	≤ 0.5
A21G U35A A69C	≤ 0.5
U3G C5G C11A A20G U35C	≤ 0.5
G9C A42U C55G	≤ 0.5
U16C A20C C27U C46A	≤ 0.5
C5U C22U G48C	≤ 0.5
U16C G68C	0.834
C4U G9A C22G A42U	0.546
G6A A21G C62G A65U	≤ 0.5
U8A A69C	0.915
A20U C31G C55G C60G C66U A70U	≤ 0.5
A21C C30G C66A	0.572
C22G C27A C49U C55U	≤ 0.5
C4U C29U C31A C55U A57C	≤ 0.5
C29A A37U A43C	0.733
C4A C5U A21C C34G A40C G50C A57U	≤ 0.5
G10A C22U A69C	≤ 0.5
C5G C11G A14C U35G A45C A57C C62G G68C	≤ 0.5

Variant	yeast fitness
U8C G9U C27A	≤ 0.5
C11G G44C C55U	≤ 0.5
G52A U53A C62U	≤ 0.5
C4G C5A U13A A21C C33U G52A A57G G67U	≤ 0.5
C4G U47A C49G	≤ 0.5
G17C C27G A65U	≤ 0.5
G9A C27G A40G G56C	≤ 0.5
C27G C49A G58A C62G	≤ 0.5
A15G A21U C34U C46G U53G	≤ 0.5
A20U C22A C27G C34U	≤ 0.5
C33G G58C G68C	≤ 0.5
C5A C11G C31G	≤ 0.5
G25C C62G	0.877
G10A C11G U28A C33U G38A	≤ 0.5
C27U G38C G67A	≤ 0.5
C34U G52A C61U C66A	≤ 0.5
C29A C34G C55G	≤ 0.5
C4U A20U C27G C30G A43G C66U	≤ 0.5
G6A U13C C62A	≤ 0.5
G17A C29U G67A	0.553
U7G U19A C22G C24G A40G C55G A70U	≤ 0.5
U35C A42U	0.819
C11G A57G	0.624
G23C C46A G56A C62U A69U	≤ 0.5

Variant	yeast fitness
C4U C11U G23C A37U G44A	≤ 0.5
G6A U8A G23A C30G A65U	≤ 0.5
U3G C24U C31U A69U	0.839
A14U G44A G67A A70G	≤ 0.5
C24U C49G G63A A69C	≤ 0.5
U2A C5A U32C G39C C46G	≤ 0.5
U2C C4U A70C	0.733
C5U G23C U32C U54A	≤ 0.5
U8G U19A C49G G56U	≤ 0.5
C34U U54C C61A	≤ 0.5
C4U A14C U53A	≤ 0.5
A36U A43C A70C	≤ 0.5
C27U C30U A42C	≤ 0.5
A21C C24U C62U G68C	≤ 0.5
G10A C34U A37G G39C	≤ 0.5
C29U A45G C46G G50A	≤ 0.5
G17A A21G U28G A65U	≤ 0.5
G25A A36C	0.52
C11G C24G U64A G68A	≤ 0.5
C5G A43U G63A	≤ 0.5
G6C C29G A40U	≤ 0.5
U3A C11G A14C C24G G58A	≤ 0.5
U16G U26G A36G C49G	≤ 0.5
C27G A36G G52A	≤ 0.5

Variant	yeast fitness
U3A C4U C33G C34G A57U	0.63
C5A U16A A45G G50A C55A	≤ 0.5
C29A C30U C34U C61U C66A	≤ 0.5
C31G C33U A37C C61U A65U	≤ 0.5
C27U C33U G48C	≤ 0.5
A14G A20G U28C G68C	≤ 0.5
G12C C49U G52C A57C A65C	0.53
C29G C31G C49A	≤ 0.5
A45G G51A G67A	0.601
C4A G17A C24G G68C	≤ 0.5
C11G U35G C55U	≤ 0.5
G6C U8C A42G C46U C55G A65U	≤ 0.5
A21G C34A C61A	≤ 0.5
G9A A65G G68C	0.594
C5U A21C C31G C60G	≤ 0.5
A20U C31A U64G C66A	≤ 0.5
G9C A37U A40U	≤ 0.5
C4U U47C C60A	≤ 0.5
U3A G9A U19A G44C C61U C62G	≤ 0.5
A15U A21G C29U G44C C55A G56C C61U A70G	≤ 0.5
C29U G38C C49U G68A	≤ 0.5
A21C U28A C29U C31G A43U A65U	≤ 0.5
A14G A21C A69U	≤ 0.5
U19C C29A A43C G58C	≤ 0.5

Variant	yeast fitness
G17C C27U U35C A65C	≤ 0.5
G25C U35A G67A A70G	≤ 0.5
U2C C24U U32G A40U U64G	≤ 0.5
G17C C27U A43G	≤ 0.5
A15U C30G G50A A65C	≤ 0.5
U16G C30G C55G	≤ 0.5
U32C A43G A65C	0.913
G9C C30U C55G	≤ 0.5
G9C C11A A40C U54A G68C A69U	≤ 0.5
C5G G48C G51A A69U	≤ 0.5
A15C C33G A70G	≤ 0.5
U13C C46A G52A G63C	≤ 0.5
C4U A15G G25A G48C C62A	≤ 0.5
G10C C29A	≤ 0.5
C29A C66G A70U	≤ 0.5
U2A G10A A14C C24U C31G G51C	≤ 0.5
A14U A45U G68C	≤ 0.5
A20U G23A C31U G39A	≤ 0.5
A15G U16A G38C C62G	≤ 0.5
U2A C5G G10A C11G A20G	≤ 0.5
U13A G48C C55G C66A	0.584
C24G A36G U53A	0.555
C5A C30U U47A G67C	≤ 0.5
C5G G10C A37U G38A G58C	≤ 0.5

Variant	yeast fitness
U8A A15U A37C C46U G67C	≤ 0.5
C29A C30G A45U	≤ 0.5
A15C U16C A37C G50A U53A	≤ 0.5
A14G A15G A45U C62U A70U	≤ 0.5
C22G C55A C62U	≤ 0.5
C30G G38C G52A C55U	≤ 0.5
C5U G10C C30A A36U A42C	≤ 0.5
A14G G51C U59G	≤ 0.5
G17C A42C U54A G67C A69U	≤ 0.5
C33A A42C A45C	≤ 0.5
A15G C22G A36U A40G	≤ 0.5
A21U C22U U32A A57C	≤ 0.5
U3C A40C C49U C61G	≤ 0.5
C29G U32A C62A	0.608
A14C U64C A69C	≤ 0.5
G9C A20G C29G C34G	≤ 0.5
C11G C31A A43C	≤ 0.5
C30A G50U	0.816
C49U C55U A69C	0.665
U2A A20G G23C C55U	≤ 0.5
G12A U16C C27A A70C	≤ 0.5
A15U U47G A57U	≤ 0.5
G10C G23A A70U	≤ 0.5
U19A A37U C55A	≤ 0.5

Variant	yeast fitness
G9C U47G C49A A69U	≤ 0.5
C27U C29A G38C A57G A65C	≤ 0.5
G9A G67U	0.863
C33U C34G	0.648
U8A A40U A70C	0.547
G63C A65C C66A	≤ 0.5
G12A C27U U32A	0.702
G12C A42U	0.698
U3C C5U G17C U26G G67A	≤ 0.5
U7A C34G G38C	≤ 0.5
U28G C34G G44C	≤ 0.5
G9C C27G G44A A57G G63A	≤ 0.5
G9C G44C G67A	≤ 0.5
U13C A20U C34U G68A A70C	≤ 0.5
C5U C31U C61G	0.549
G6A C24U U32G A40U U64G	≤ 0.5
A42G G52A A70G	≤ 0.5
G56A A65U	0.978
C11A G52C G67A	≤ 0.5
U3A A21C A36U U59C	≤ 0.5
C11A A21G C34U A37G C62A	≤ 0.5
C31G C62A	0.607
C24U C31A C33A C34U	≤ 0.5
